PubChem BioAssay AID1259424 | University of Nebraska Medical Center | 2018

Screen: 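Rank knockdowns across the genome by resemblance to the KSR1 depletion profile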 (primary screen)
Cell system: human HCT116 colon cancer cells
Knock-down reagent: siRNA pool against human genes, 50 nM
Measured: 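Six signature mRNAs by branched-DNA multiplex assay, scaled to two housekeeping genes and non-targeting median, log2; matched to mean KSR1 knockdown profile by Pearson correlation and euclidean distance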
Direction: mean correlation with KSR1 profile and KSR1 correlation: higher = expression change more like KSR1 knockdown; mean distance from KSR1 profile: higher = expression change less like KSR1 knockdown
The deposit covers about 14,000 reagents; this is a random part of them. 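Higher correlation or smaller distance means closer resemblance to KSR1 loss; control wells, including KSR1 knockdowns, recur on many plates.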 Not all columns of the deposit are shown. The record does not give: the time to read-out.

Target gene | mean correlation with KSR1 profile | mean distance from KSR1 profile | KSR1 correlation, replicate 1
BSCL2 | -0.466 | 3.15 | -0.376
OLA1 | 0.404 | 1.38 | 0.138
TBX5 | -0.384 | 2.5 | -0.134
B3GNT2 | -0.455 | 2.34 | -0.253
CTTN | -0.444 | 3.41 | -0.222
BDH1 | 0.352 | 2.39 | -0.121
UNG | 0.497 | 2.86 | 0.465
PGGHG | -0.327 | 2.21 | -0.177
ORM2 | -0.281 | 2.93 | -0.203
EDIL3 | -0.37 | 2.36 | -0.309
AK4 | -0.0301 | 3.16 | 0.164
ADCY8 | -0.312 | 1.7 | -0.164
SLC39A14 | -0.0746 | 1.32 | 0.0106
SPRYD7 | -0.523 | 1.87 | -0.64
NDUFAF5 | -0.698 | 2.82 | -0.65
MYL7 | -0.626 | 2.76 | -0.675
CAP2 | 0.0474 | 3.08 | 0.0876
SDR39U1 | -0.701 | 1.83 | -0.375
UGT2A3 | 0.297 | 1.57 | 0.291
ARHGAP45 | -0.0118 | 1.59 | -0.126
CCDC69 | -0.429 | 2.83 | -0.207

Laid out differently: results already given
MYL7: mean correlation with KSR1 profile = -0.626; mean distance from KSR1 profile = 2.76; KSR1 correlation, replicate 1 = -0.675
CAP2: mean correlation with KSR1 profile = 0.0474; mean distance from KSR1 profile = 3.08; KSR1 correlation, replicate 1 = 0.0876
SDR39U1: mean correlation with KSR1 profile = -0.701; mean distance from KSR1 profile = 1.83; KSR1 correlation, replicate 1 = -0.375
UGT2A3: mean correlation with KSR1 profile = 0.297; mean distance from KSR1 profile = 1.57; KSR1 correlation, replicate 1 = 0.291
ARHGAP45: mean correlation with KSR1 profile = -0.0118; mean distance from KSR1 profile = 1.59; KSR1 correlation, replicate 1 = -0.126

Continued:
Target gene | mean correlation with KSR1 profile | mean distance from KSR1 profile | KSR1 correlation, replicate 1
ALDOA | -0.316 | 3.36 | 0.205
NALF2 | 0.844 | 0.378 | 0.811
PURB | -0.141 | 2.75 | 0.0504
CCDC62 | -0.0169 | 2.54 | -0.162
RBM42 | 0.448 | 1.42 | 0.296
CYTH3 | -0.535 | 2.09 | -0.742
UBE2O | -0.336 | 3.46 | -0.279
LMOD3 | -0.37 | 2.81 | -0.349
LMX1A | -0.2 | 2.06 | 0.205
CHST12 | 0.0273 | 3.62 | 0.14
SMYD5 | 0.118 | 2.32 | -0.428
POR | 0.07 | 2.7 | 0.0814
C2 | 0.0122 | 2.97 | -0.451
